Assay results reported in PubChem BioAssay AID743255 (National Center for Advancing Translational Sciences (NCATS), 2014).
In all, about 390,000 compounds went through this assay and about 910 (0.23%) were called active. Inconclusive means that the source gave no clear call. Such entries were picked first, then a sample of the others. Calls come from the whole dose curve; as a rule, active = well fitted inhibition curve with a large enough effect; inconclusive = small, poorly fitted or top-dose-only effect; inactive = no such curve, though single readings can be large or run the other way. A potency beside an inconclusive call is a rough fit, not a confirmed value.

The chains behind the UniProt entries cited, without tags or fusion partners. Where a name states a change or a piece, a line headed by the entry shows the natural chain unless it says otherwise.
UniProt O94782: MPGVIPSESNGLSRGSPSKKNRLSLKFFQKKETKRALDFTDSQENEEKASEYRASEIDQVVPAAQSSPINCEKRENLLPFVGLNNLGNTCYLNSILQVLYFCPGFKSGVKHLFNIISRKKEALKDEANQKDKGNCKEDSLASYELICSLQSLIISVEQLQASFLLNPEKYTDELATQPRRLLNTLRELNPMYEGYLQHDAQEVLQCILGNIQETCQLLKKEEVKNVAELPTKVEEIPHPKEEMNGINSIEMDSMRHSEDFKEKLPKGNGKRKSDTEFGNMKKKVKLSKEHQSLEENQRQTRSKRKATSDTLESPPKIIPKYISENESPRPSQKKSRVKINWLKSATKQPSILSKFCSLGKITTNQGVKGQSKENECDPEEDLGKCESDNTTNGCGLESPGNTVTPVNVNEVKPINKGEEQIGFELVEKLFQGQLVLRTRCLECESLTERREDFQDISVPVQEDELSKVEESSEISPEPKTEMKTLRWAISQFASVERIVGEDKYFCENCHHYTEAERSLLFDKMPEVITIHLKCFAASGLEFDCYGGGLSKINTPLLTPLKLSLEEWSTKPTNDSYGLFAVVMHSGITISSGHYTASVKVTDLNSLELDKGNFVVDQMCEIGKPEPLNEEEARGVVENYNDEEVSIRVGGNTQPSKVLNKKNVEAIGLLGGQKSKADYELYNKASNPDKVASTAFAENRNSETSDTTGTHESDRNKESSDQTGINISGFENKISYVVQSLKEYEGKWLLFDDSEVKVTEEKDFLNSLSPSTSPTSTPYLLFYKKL

Each molecule was assayed against Ubiquitin carboxyl-terminal hydrolase 1 (Homo sapiens) (UniProt O94782) (assay: Inhibitors of USP1/UAF1: Primary Screen). Details: recombinant USP1/UAF1, Ub-Rhodamine cleavage fluorescence; activity change, negative = inhibition: at 57.1 µM (top of the series).
Procedure, shortened: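 USP1/UAF1 complex (1 nM) preincubated 15 min at room temperature with compound, then Ub-Rho substrate (150 nM final) added. Kinetic fluorescence at 480/540 nm over 6 reads at 60 s intervals; 50 mM HEPES pH 7.8, 0.5 mM EDTA, 0.1 mg/ml BSA, 1 mM TCEP, 0.01% Tween-20.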
% is set by controls: 0 for no effect and ±100 for the full control effect; potency is the fitted concentration of half-maximal effect.
Note: nearly all actives have a fitted effect of over 60% in size.

Row | Compound | Potency | activity change, negative = inhibition
1 | CCc1ccc(Nc2n[n+](C)c(-c3ccncc3)s2)cc1 | inconclusive: 44.7 µM [inhibitor, single point] | 
2 | COc1ccc(CCN(CC(=O)NCc2ccc(F)cc2)C(=O)c2snc(C(N)=O)c2N)cc1OC | inconclusive: 50.1 µM [inhibitor, single point] | 
3 | COC(=O)/C=C1\S/C(=N\N=C\CC(=O)OC)NC1=O | inconclusive: 35.5 µM [inhibitor, single point] | 
4 | O=c1[nH][nH]c(-c2ccccc2)c1-c1ccccc1 |  | inactive: -9.54%
5 | CCCc1cc(=O)n2[nH]c(NCc3ccc(CC)cc3)nc2n1 | inconclusive: 7.08 µM [inhibitor, single point] | 
6 | O=C1c2[nH]nc(-c3ccccc3)c2C(c2ccccc2)N1c1cccc(C(F)(F)F)c1 (stereo unspecified) | inconclusive: 56.2 µM [inhibitor, single point] | 
7 | Cc1ccc(NC(=O)c2ccc(-n3cccn3)c([N+](=O)[O-])c2)cc1 |  | inactive: -3.99%
8 | COc1ccc(C2=NN(c3nc(-c4ccc(CNC(C)=O)cc4)cs3)C(c3ccco3)C2)cc1 (stereo unspecified) | inconclusive: 35.5 µM [inhibitor, single point] | 
9 | FC(F)(F)c1ccc(C2[C@H]3CN(Cc4ccc(-c5ccccc5)cc4)[C@H](c4ccccc4)C34CC2(c2ccccc2)C4)cc1 (stereo partly specified) | inconclusive: 44.7 µM [inhibitor, partial curve] | 
10 | COCc1cccc(NC(=O)Cc2cccc3ccccc23)c1 | inconclusive: 7.08 µM [inhibitor, partial curve, poor fit] | 
11 | COc1ccc(SC[C@H](C)CN2CC[C@H](C)CCC2=O)cc1 | inconclusive: 89.1 µM [inhibitor, partial curve, poor fit] | 
12 | Cc1ccc(-n2nc(CO)c(C(=O)NCCc3ccccc3)n2)cc1 | inconclusive: 39.8 µM [inhibitor, partial curve] | 
13 | O=C(Nc1nc(-c2ccc(-c3ccccc3)cc2)cs1)C1=COCCO1 |  | inactive: -14.6%
14 | COc1cccc2sc3ccc(C#CC4(N)CCCCC4)cc3c(=O)c12 | inconclusive: 0.282 µM [inhibitor, full curve] | 
15 | Cc1ccc(-c2nn(-c3ccccc3)cc2/C=C2\SC(=S)N(CC(=O)O)C2=O)cc1 |  | inactive: -16.9%
16 | C#CCOCCOCCOCCNc1nc(N2CCN(C(=O)CCCCCCCCCCNC(=O)Cn3cc(CCCCCN)nn3)CC2)nc(N2CCN(C(=O)CCCCCCCCCCNC(=O)[C@H]([C@@H](C)CC)n3cc(CCCCN=C(N)N)nn3)CC2)n1 | inconclusive: 56.2 µM [inhibitor, partial curve, poor fit] | 
17 | Cc1ccc(C2(C)NC(=O)N(CC(=O)N3CCc4ccccc43)C2=O)cc1 (stereo unspecified) | inconclusive: 5.01 µM [inhibitor, full curve, poor fit] | 
18 | CCCCn1c2ccccc2c2nnc(SCC(=O)Nc3ccc(NC(C)=O)cc3)nc21 | inconclusive: 8.91 µM [inhibitor, single point] | 
19 | NS(=O)(=O)c1ccc(CCNc2ccccc2[N+](=O)[O-])cc1 | inconclusive: 39.8 µM [inhibitor, partial curve, poor fit] | 
20 | CCOC(=O)CSc1c(-c2ccc(Cl)cc2)[nH]c2ccccc12 | inconclusive: 39.8 µM [inhibitor, partial curve, poor fit] | 
21 | CCOc1ccc(NC(=O)c2c(NC(=O)Cc3ccccc3)sc3c2CCCC3)cc1 | inconclusive: 35.5 µM [inhibitor, partial curve] | 

Row | Compound | Potency | activity change, negative = inhibition
22 | O=C1CC(N2CCOCC2)=NN1c1ccc([N+](=O)[O-])cc1 | inconclusive: 2.24 µM [inhibitor, partial curve] | 
23 | COc1cc(/C=C2\SC(=S)N(CCCCC(=O)O)C2=O)ccc1OS(=O)(=O)c1ccc(C)cc1 | inconclusive: 35.5 µM [inhibitor, partial curve] | 
24 | CC(Cc1ccccc1)NC(=O)CC(c1ccccc1)c1ccccc1O (stereo unspecified) | inconclusive: 1.26 µM [inhibitor, partial curve] | 
25 | COc1ccccc1N1CCN(C(=O)CCC(=O)O)CC1 |  | inactive: -12.3%
26 | Nc1c(C(=O)NCc2ccc3c(c2)OCO3)c2nc3ccccc3nc2n1CCCN1CCOCC1 | inconclusive: 2.51 µM [inhibitor, full curve] | 
27 | C=CC1=C2C=C(C3CC3)N(CC3CC3)C=C2C(=O)C(C)(OC(=O)c2ccco2)C1=O (stereo unspecified) | inconclusive: 35.5 µM [inhibitor, partial curve] | 
28 | Cc1nn(-c2ccccn2)c2c1C(c1ccccc1Cl)C1=C(N2)c2ccccc2C1=O (stereo unspecified) | inconclusive: 35.5 µM [inhibitor, partial curve] | 
29 | c1ccc(C2=Nn3c(Cn4nnc5ccccc54)nnc3SC2)cc1 |  | inactive: -17.2%
30 | COc1ccc(N2C(=O)CS(=O)(=O)C23C(=O)N(Cc2ccc(C)cc2)c2ccccc23)cc1Cl (stereo unspecified) | inconclusive: 39.8 µM [inhibitor, partial curve] | 
31 | COc1ccc(CCNC(=O)c2ccc3c(c2)nc2n3CCC(C)C2)cc1OC (stereo unspecified) | inconclusive: 6.31 µM [inhibitor, single point] | 
32 | Cc1cccc(NC(=O)Cn2c(=O)ccc3cc(S(=O)(=O)N4CCCC4)ccc32)c1C |  | inactive: -29.9%
33 | CC(C)N(Cc1nc(-c2ccc(Cl)cc2)no1)C(=O)/C=C/c1ccccc1 |  | inactive: -3.81%
34 | Oc1c(CN2CCc3ccccc3C2)cc(Cl)c2cccnc12 | inconclusive: 44.7 µM [inhibitor, partial curve] | 
35 | Cc1ccc(P(=O)(CSC(=N)N)c2ccc(C)cc2)cc1 |  | inactive: -27.1%
36 | Cc1c(NC(=O)c2cc3ccccc3oc2=O)c(=O)n(-c2ccccc2)n1C | inconclusive: 0.631 µM [inhibitor, full curve, poor fit] | 
37 | COC(=O)CCCC1=CC2=CC(=O)C(C)(OC(=O)c3cccs3)C(=O)C2=CN1C1CCCC1 (stereo unspecified) | inconclusive: 31.6 µM [inhibitor, partial curve] | 
38 | CCOc1ccc(/C=C2\SC(=S)N(CC(=O)N(CCO)C(C)(C)C)C2=O)cc1 |  | inactive: -18.4%
39 | CC[n+]1ccc(/C=C/c2c[nH]c3ccccc23)cc1 | active: 28.2 µM | 
40 | O=c1[nH]cc(S(=O)(=O)NCc2ccccc2)c(=O)[nH]1 | inconclusive: 6.31 µM [inhibitor, full curve] | 
41 | COc1ccc(-c2ccc(NS(=O)(=O)c3cccc(C)c3)cc2)nn1 | inconclusive: 5.01 µM [inhibitor, partial curve] | 
42 | COC(=O)Cn1c2ccccc2c2nc(=O)cc(C)n21 | inconclusive: 10 µM [inhibitor, single point] | 

Row | Compound | Potency | activity change, negative = inhibition
43 | Cc1nn(-c2ccccc2)c2sc(-c3n[nH]c(=S)o3)cc12 | inconclusive: 39.8 µM [inhibitor, partial curve] | 
44 | C[C@H](CO)N1C[C@H](C)[C@@H](CN(C)S(C)(=O)=O)Oc2c(NC(=O)c3ccncc3)cccc2C1=O | inconclusive: 28.2 µM [inhibitor, single point] | 
45 | O=C(NNc1cc(N2CCOCC2)nc(N2CCOCC2)n1)c1ccc([N+](=O)[O-])cc1 | active: 31.6 µM | 
46 | COc1ccc(OCC(=O)NNC(=O)c2ccc(-c3ccccc3)cc2)cc1 | inconclusive: 50.1 µM [inhibitor, partial curve, poor fit] | 
47 | CC1CCCCC1NC(=O)COC(=O)c1ccc([N+](=O)[O-])o1 (stereo unspecified) | inconclusive: 44.7 µM [inhibitor, partial curve, poor fit] | 
48 | Fc1ccc2c(c1)C(c1ccncc1)=NNC(c1ccccc1)=N2 |  | inactive: -17.8%
49 | Cc1ccc(OCCOC(=O)CCc2nc3ccccc3c(=O)[nH]2)cc1 | inconclusive: 7.08 µM [inhibitor, single point] | 
50 | COc1cc2c(cc1OC)n(Cc1ccc([N+](=O)[O-])cc1)c(=O)n1nc(-c3ccccc3)nc21 | inconclusive: 0.562 µM [inhibitor, full curve, poor fit] | 
51 | CCCCOc1ccccc1C1C(C(=O)OC)=C(C)N(C)C(C)=C1C(=O)OC | inconclusive: 15.8 µM [inhibitor, partial curve] | 
52 | CC(=O)Nc1ccc(/C=C(\C#N)S(=O)(=O)c2ccc(C)cc2)cc1 |  | inactive: -8.47%
53 | CC1CCN(c2nc3c(S(=O)(=O)c4ccc(Cl)cc4)nnn3c3ccsc23)CC1 | inconclusive: 0.708 µM [inhibitor, full curve, poor fit] | 
54 | Cc1[nH]c2c(ccc3cccnc32)c1C | inconclusive: 56.2 µM [inhibitor, partial curve, poor fit] | 
55 | CCCCCCSc1cc(-c2nc3cnccn3c2NCc2ccccc2)ccc1OC | inconclusive: 39.8 µM [inhibitor, partial curve, poor fit] | 
56 | CC(C)(C)OC(=O)[C@H](Cc1ccccc1)NC(=O)c1[nH]cnc1C(=O)N[C@@H](Cc1ccccc1)C(=O)OCc1ccccc1 | inconclusive: 5.01 µM [inhibitor, partial curve] | 
57 | COc1ccc(C(=O)O/N=C(\N)Cc2ccc([N+](=O)[O-])cc2)c(OC)c1 | inconclusive: 0.316 µM [inhibitor, full curve, poor fit] | 
58 | Cc1ccc2nc(-c3cccc(S(=O)(=O)N4CC(C)OC(C)C4)c3)cn2c1 (stereo unspecified) | inconclusive: 56.2 µM [inhibitor, partial curve, poor fit] | 
59 | COc1ccccc1C(=O)NC(=S)Nc1ccc2[nH]c(=O)[nH]c2c1 | inconclusive: 3.98 µM [inhibitor, full curve, poor fit] | 
60 | Cc1ccc(-c2nc3c4ccccc4ccn3c2Cc2ccccc2)cc1 | inconclusive: 50.1 µM [inhibitor, partial curve, poor fit] | 
61 | Cc1ccc(NC(=O)c2ccc(OC(=O)CCN3C(=O)c4ccccc4C3=O)cc2)cc1 |  | inactive: -15.2%

Exported as labelled records: part of the list above
Cc1ccc2nc(-c3cccc(S(=O)(=O)N4CC(C)OC(C)C4)c3)cn2c1 (stereo unspecified)
  Potency: inconclusive: 56.2 µM [inhibitor, partial curve, poor fit]
COc1ccccc1C(=O)NC(=S)Nc1ccc2[nH]c(=O)[nH]c2c1
  Potency: inconclusive: 3.98 µM [inhibitor, full curve, poor fit]
